According to publication PMC4979047:
No constants are given. Whether binding was seen depends on the method and setting. For part of these data: Binding seen in cells or lysates may run through a third protein. Some results given as binding are weak or reduced against the parent protein; the word gives no strength. For part of these data: Sequences can lack the tags named with a protein.

The chains behind the UniProt entries cited, without tags or fusion partners. Where a name states a change or a piece, a line headed by the entry shows the natural chain unless it says otherwise. A line that says so, or that is headed by a name, gives the form on record, which may keep a tag or linker. Residues count along the entry.
UniProt P35968: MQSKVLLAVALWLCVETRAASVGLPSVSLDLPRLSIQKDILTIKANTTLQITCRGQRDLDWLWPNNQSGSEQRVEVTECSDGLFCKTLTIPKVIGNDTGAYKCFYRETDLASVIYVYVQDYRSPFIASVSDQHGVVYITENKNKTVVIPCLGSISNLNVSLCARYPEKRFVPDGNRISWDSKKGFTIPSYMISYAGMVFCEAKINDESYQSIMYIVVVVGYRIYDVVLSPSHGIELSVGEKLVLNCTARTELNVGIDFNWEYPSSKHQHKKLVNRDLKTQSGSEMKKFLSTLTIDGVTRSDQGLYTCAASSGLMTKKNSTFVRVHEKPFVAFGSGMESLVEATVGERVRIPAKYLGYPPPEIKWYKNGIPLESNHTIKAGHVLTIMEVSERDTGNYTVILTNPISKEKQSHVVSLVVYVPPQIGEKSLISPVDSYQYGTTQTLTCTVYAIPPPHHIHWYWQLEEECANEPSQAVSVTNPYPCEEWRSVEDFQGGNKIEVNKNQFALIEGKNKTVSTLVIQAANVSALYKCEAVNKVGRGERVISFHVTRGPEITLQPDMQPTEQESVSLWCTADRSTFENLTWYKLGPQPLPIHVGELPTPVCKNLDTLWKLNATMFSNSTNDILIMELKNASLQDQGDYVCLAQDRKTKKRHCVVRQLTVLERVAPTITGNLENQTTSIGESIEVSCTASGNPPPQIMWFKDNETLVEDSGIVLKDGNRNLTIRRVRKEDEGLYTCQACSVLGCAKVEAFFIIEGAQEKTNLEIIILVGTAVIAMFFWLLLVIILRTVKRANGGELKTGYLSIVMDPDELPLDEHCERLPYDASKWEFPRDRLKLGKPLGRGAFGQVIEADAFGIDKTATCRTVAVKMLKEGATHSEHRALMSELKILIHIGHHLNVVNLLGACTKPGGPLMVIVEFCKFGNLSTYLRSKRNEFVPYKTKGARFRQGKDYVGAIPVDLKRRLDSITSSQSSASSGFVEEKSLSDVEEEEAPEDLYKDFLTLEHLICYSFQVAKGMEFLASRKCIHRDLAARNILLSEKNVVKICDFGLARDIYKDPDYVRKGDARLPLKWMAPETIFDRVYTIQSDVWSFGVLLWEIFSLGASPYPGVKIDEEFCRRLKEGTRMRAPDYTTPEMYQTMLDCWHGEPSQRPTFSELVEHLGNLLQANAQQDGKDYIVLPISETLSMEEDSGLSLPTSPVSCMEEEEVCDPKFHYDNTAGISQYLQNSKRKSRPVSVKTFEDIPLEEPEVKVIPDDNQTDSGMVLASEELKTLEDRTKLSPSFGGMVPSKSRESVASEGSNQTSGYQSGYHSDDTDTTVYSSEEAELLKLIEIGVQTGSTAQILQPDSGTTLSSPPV
VEGFR2, endogenous in HUVECs (human (endogenous in HUVEC)): residues 20-1356 of P35968
His-tagged VEGFR2 extracellular domain (1-746 amino acids): residues 20-746 of P35968

How the values were obtained:
HA-tagged LECT2 = target: T1, HA-tagged LECT2 (UniProt O14960); test: co-IP; 293T cells co-transfected with LECT2-HA and VEGFR2-V5; lysates immunoprecipitated with an HA antibody, immunoblotted
T1 sequence: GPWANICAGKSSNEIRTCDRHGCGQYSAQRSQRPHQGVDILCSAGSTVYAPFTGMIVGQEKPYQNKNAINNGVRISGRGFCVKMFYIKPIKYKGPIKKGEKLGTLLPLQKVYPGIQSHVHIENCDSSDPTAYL

[1] = target: His-tagged VEGFR2 extracellular domain (1-746 amino acids) (UniProt P35968); test: pull-down; in vitro binding assay: Fc-tagged rLECT2 and His-tagged VEGFR2 extracellular domain incubated, purified using a nickel-affinity column, washed precipitates western blotted; both purified
[2] = target: VEGFR2, endogenous in HUVECs (human (endogenous in HUVEC)) (UniProt P35968); test: co-IP; HUVECs treated with control or LECT2 conditioned medium from 293T cells for 30 min; HUVEC lysates immunoprecipitated with an antibody as indicated

In the case of “V5-tagged VEGFR2 (from UniProt P35968 20-1356) (receptor)”, the binding (HA-tagged LECT2) is reported as “binds”.

With “Fc-tagged recombinant human LECT2 protein (leukocyte cell-derived chemotaxin 2) (from UniProt O14960 19-151) (Fc fusion)” the binding [1] was “binds”.

B1: LECT2 in conditioned medium of 293T cells overexpressing LECT2 (protein, UniProt O14960 19-151)
chain: T1 sequence
In the case of B1, the binding [2] is reported as “binds”.
